Microarray screen: hit calls

From ROBIN, a set of small-molecule microarray screens (doi:10.1002/anie.202211358).

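The test is a small-molecule microarray: each compound is printed twice on a reactive slide, and binding shows as fluorescence of the labelled oligonucleotide after washing. The data file lists only calls. An earlier report of the laboratory on the PreQ1, TPP and SAM-II riboswitches (doi:10.1038/s41467-019-09493-3) used 1 µM RNA for 2 h and required a mean Z-score above 3 (spot signal-to-noise against the whole library), a score well above that on a control array, and duplicate spots agreeing (coefficient of variation under 100); it then also set aside compounds that hit other targets, which this list keeps. The cut-offs behind this list may differ. These are primary screening calls, not affinities; a compound without a hit may have attached poorly or may still bind in solution.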 Key: active = hit, inactive = tested without a hit. The compounds are a random part of those screened. A target missing from an entry has no call listed here.

Targets (5′ to 3′):
PreQ1: PreQ1 riboswitch RNA pseudoknot, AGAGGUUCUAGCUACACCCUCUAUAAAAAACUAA. From B. subtilis. About 170 hits among about 24,000 compounds.
SAM-II: SAM-II riboswitch RNA pseudoknot, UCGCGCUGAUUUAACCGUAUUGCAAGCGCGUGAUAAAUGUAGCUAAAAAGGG. About 200 hits among about 21,000 compounds.
TPP: TPP riboswitch RNA three-way junction, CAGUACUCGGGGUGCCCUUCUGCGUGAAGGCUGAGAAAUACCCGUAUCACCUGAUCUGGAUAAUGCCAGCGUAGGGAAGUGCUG. About 160 hits among about 24,000 compounds.

structure: COCc1cc(-c2nccn2CC(O)C(F)(F)F)ccc1OC (stereo not shown)
PreQ1: inactive
SAM-II: inactive
TPP: inactive

structure: COc1nc2ccccc2cc1-c1cc(NCCO)nc(N)n1
PreQ1: inactive
SAM-II: inactive
TPP: inactive

structure: O=C1NC2(CCNCC2)C(=O)N1CC1CC(c2ccccc2)=NO1 (stereo not shown)
PreQ1: inactive
SAM-II: inactive
TPP: inactive

structure: Cc1[nH]c2ccccc2c1CCNC1=CC(=O)CC(C)(C)C1
PreQ1: inactive
SAM-II: inactive
TPP: inactive

structure: CN1CCCN(C[C@@H]2CN(Cc3cnc(-c4ccccc4)nc3)C[C@@H]2CO)CC1
PreQ1: inactive
SAM-II: inactive
TPP: inactive

structure: O=c1c2c(nc(SCCO)n1Cc1ccco1)-c1ccccc1CC21CCCCC1
PreQ1: inactive
TPP: inactive

structure: Cn1cc(SCC(=O)NCc2cc3n(n2)CCCNC3)c2ccccc21
PreQ1: inactive
SAM-II: inactive
TPP: inactive

structure: N#CC1=C(N)Oc2[nH]nc(-c3ccc(Cl)cc3)c2C1c1c[nH]nc1-c1ccc(F)cc1 (stereo not shown)
PreQ1: inactive
SAM-II: inactive
TPP: inactive

structure: O=C1CC(N2CCCC(CO)C2)C(=O)N1c1ccccc1 (stereo not shown)
PreQ1: inactive
SAM-II: inactive
TPP: inactive

structure: O=C(c1cnc2ccccn2c1=O)N1C[C@@H](CN2CCCCCC2)[C@@H](CO)C1
PreQ1: inactive
SAM-II: inactive
TPP: inactive

structure: CN1CCCN(C[C@H]2C[C@H](CO)CN(C(=O)Cn3ncnn3)C2)CC1
PreQ1: inactive
SAM-II: inactive
TPP: inactive

structure: Cc1cc(C)n2nc(NCc3cccc(Br)c3)nc2n1
PreQ1: inactive
TPP: inactive

structure: COc1ccccc1N1CCN(CC(O)COc2cccc3ccccc23)CC1 (stereo not shown)
PreQ1: inactive
SAM-II: inactive
TPP: inactive

structure: Nc1nonc1C(=O)NCCNCc1cc(Br)ccc1OCc1ccc(Cl)cc1
PreQ1: inactive
SAM-II: inactive
TPP: inactive

structure: O=C(Cc1ccccc1OCc1ccccc1)N1CCOCC(O)C1 (stereo not shown)
PreQ1: inactive
SAM-II: inactive
TPP: inactive

structure: CCCCNc1c2c3c(cccc3n(C)c1=O)C(=O)c1ccccc1-2
PreQ1: inactive
SAM-II: inactive
TPP: inactive

structure: COc1ccc(C(N)CC(O)Cc2cc(OC)c3c(c2OC)OCO3)cc1 (stereo not shown)
PreQ1: inactive
SAM-II: inactive
TPP: inactive

structure: COc1cc(N2CCC(C(N)=O)CC2)ccc1Nc1nc(N)c(Cl)c(Nc2ccccc2S(=O)(=O)C(C)C)n1
PreQ1: inactive
SAM-II: inactive
TPP: inactive

structure: CC(CCCC(C)(C)O)CCNCCCn1ccnc1C(C)C (stereo not shown)
PreQ1: inactive
SAM-II: inactive
TPP: inactive

structure: CCCCCCCCCCCCc1ccc(S(=O)(=O)Nc2nncs2)cc1
PreQ1: inactive
SAM-II: inactive
TPP: active

structure: COc1cc2c(cc1OC)CN(CCc1ccc(NC(=O)c3cc(OC)c(OC)cc3NC(=O)c3cnc4ccccc4c3)cc1)CC2
PreQ1: inactive
SAM-II: inactive
TPP: inactive

structure: Cc1ccc(C(C)C)c(OCC(O)CN2CCC(C)CC2)c1 (stereo not shown)
PreQ1: inactive
SAM-II: inactive
TPP: inactive

structure: Cc1cc(N2CCn3nc(CN4C[C@@H]5CCC[C@H](C4)C(=O)N5)cc3C2)nc(N)n1
PreQ1: inactive
SAM-II: inactive
TPP: inactive

structure: O=C(c1cnc2ccccn2c1=O)N1CCOCC(CO)C1 (stereo not shown)
PreQ1: inactive
SAM-II: inactive
TPP: inactive

structure: NCCCN1C(=O)CC[C@H]2CN(C(=O)CN3CCCC3=O)CC[C@H]21
PreQ1: inactive
SAM-II: inactive
TPP: inactive

structure: CN1CCC(=C2c3ccccc3C=Cc3ccccc32)CC1
PreQ1: inactive
SAM-II: inactive
TPP: inactive

structure: Cn1c(=O)c(CN2CC[C@@H](NC(=O)c3ccncc3)[C@H](O)C2)cc2ccccc21
PreQ1: inactive
SAM-II: inactive
TPP: inactive

structure: Nc1ccc(Cn2cncn2)cc1
PreQ1: inactive
SAM-II: inactive
TPP: inactive

structure: Cc1nc(N2CCN(C)CC2)ncc1C(=O)N1Cc2ccccc2C(O)C1 (stereo not shown)
PreQ1: inactive
SAM-II: inactive
TPP: inactive

structure: COc1ccc(Nc2snc(Cl)c2C#N)cc1
PreQ1: inactive
SAM-II: inactive
TPP: inactive

structure: O=C1CC(c2nc3ccccc3n2CC(O)COc2ccccc2Cl)CN1Cc1ccccc1 (stereo not shown)
PreQ1: inactive
TPP: inactive

structure: CC(=O)Oc1ccc([C@H]2C(C#N)=C(N)OC3=C2C(=O)CC(C)(C)C3)cc1
PreQ1: inactive
SAM-II: inactive
TPP: inactive

structure: Cc1ccccc1NC1CC(C)N(C(=O)CN2C(=O)c3ccccc3C2=O)c2c(C)cccc21 (stereo not shown)
PreQ1: inactive
SAM-II: inactive
TPP: inactive

structure: Cc1nccn1-c1ccc(CNC(=O)c2cn([C@H]3CC[C@@H](N)CC3)nn2)cc1
PreQ1: inactive
SAM-II: inactive
TPP: inactive

structure: COc1ccc(-c2nc3nc(C)cc(Nc4ccc(Br)cc4)n3n2)cc1
PreQ1: inactive
TPP: inactive

structure: Nc1nnc(Cc2nc(C3CC3)nn2-c2ccccn2)s1
PreQ1: inactive
SAM-II: inactive
TPP: inactive

structure: CCCCc1oc2ccccc2c1C(=O)c1cc(I)c(OCCN(CC)CC)c(I)c1
PreQ1: inactive
SAM-II: inactive
TPP: inactive

4 of the entries, repeated:

- CN1CCCN(C[C@H]2C[C@H](CO)CN(C(=O)Cn3ncnn3)C2)CC1 | PreQ1: inactive; SAM-II: inactive; TPP: inactive
- NCCCN1C(=O)CC[C@H]2CN(C(=O)CN3CCCC3=O)CC[C@H]21 | PreQ1: inactive; SAM-II: inactive; TPP: inactive
- Cc1nc(N2CCN(C)CC2)ncc1C(=O)N1Cc2ccccc2C(O)C1 (stereo not shown) | PreQ1: inactive; SAM-II: inactive; TPP: inactive
- CN1CCC(=C2c3ccccc3C=Cc3ccccc32)CC1 | PreQ1: inactive; SAM-II: inactive; TPP: inactive